{"source": "patent US20110053889A1", "about": "“Prenatal and postnatal screening and treatment of critical monosaccharide deficiencies for neurologic and immunologic function” (priority 2008, published 2011)", "key": {"[1]": {"test": "Breast milk monosaccharides by maternal Lewis blood-group phenotype (anion exchange chromatography)", "set-up": "species or system human", "settings": "for Breast milk monosaccharide, Term, Lewis non-secretor types (a+/−, b−): d. 1-6, n = 5, M±SD; for Breast milk monosaccharide, Term, Lewis secretor (a−, b+): d. 1-6, n = 6, M±SD; for Breast milk monosaccharide, Term, combined Lewis secretor/non-secretor types: d. 1-6, n = 11, M±SD; for Breast milk monosaccharide, Preterm, combined Lewis secretor/non-secretor types: d. 1-6, n = 20, M±SD; for Breast milk monosaccharide, Preterm, combined Lewis types: n = 12, M±SD"}, "[2]": {"test": "Monosaccharide composition of preterm and term breast milk and infant formulas by gestational and postnatal age", "set-up": "species or system human", "settings": "for trend of breast milk monosaccharide as gestation progresses towards term, 1-6 d / trend of breast milk monosaccharide as gestation progresses towards term, 1 month / trend of breast milk monosaccharide as gestation progresses towards term, 7-10 d: 30 to ≧38 wks; for trend of breast milk monosaccharide as gestation progresses towards term, 1-6 d: milk at 1-6 d; for trend of breast milk monosaccharide as gestation progresses towards term, 1 month: milk at 1 month; for trend of breast milk monosaccharide as gestation progresses towards term, 7-10 d: milk at 7-10 d; for Breast milk monosaccharide at term adjusted age, Preterm (30-37 wks): M±SD; for Breast milk monosaccharide, Term (38-41 wks): term milk at day 1-6, M±SD"}, "[3]": {"settings": "Wang et al., 2001; cited from earlier work"}}, "note": "Marks after values point to notes of the source that are not given here.", "data": [{"smiles": "N[C@H]1C(O)O[C@H](CO)[C@@H](O)[C@@H]1O", "note": "(stereo partly drawn) [Glucosamine, glucosamine]", "values": [{"measurement": "Breast milk monosaccharide, Term, Lewis non-secretor types (a+/−, b−)", "setting": "[1]", "result": "7642 ± 2420", "unit": "mg/L"}, {"measurement": "Breast milk monosaccharide, Term, Lewis secretor (a−, b+)", "setting": "[1]", "result": "8650 ± 1718", "unit": "mg/L"}, {"measurement": "Breast milk monosaccharide, Preterm, Lewis secretor (a−, b+)", "setting": "[1]; d. 1-6, n = 7, M±SD", "result": "6548 ± 2744", "unit": "mg/L"}, {"measurement": "Breast milk monosaccharide, Term, combined Lewis secretor/non-secretor types", "setting": "[1]", "result": "8192 ± 2024", "unit": "mg/L"}, {"measurement": "Breast milk monosaccharide, Preterm, Lewis non-secretor types (a+/−, b−)", "setting": "[1]; d. 1-6, n = 13, M±SD", "result": "4360 ± 1702", "unit": "mg/L"}, {"measurement": "Breast milk monosaccharide, Preterm, combined Lewis secretor/non-secretor types", "setting": "[1]", "result": "5125 ± 2314", "unit": "mg/L"}, {"measurement": "change in preterm milk (vs. term), Birth, Lewis Combined", "setting": "[1]; significant changes only", "result": "↓"}, {"measurement": "change in preterm milk (vs. term), Birth, Non-secretor types", "setting": "[1]; significant changes only", "result": "↓"}, {"measurement": "change in term adjusted age milk (vs. term), Lewis Combined", "setting": "[1]; significant changes only", "result": "↓"}, {"measurement": "change in term adjusted age milk (vs. term), Non-secretor types", "setting": "[1]; significant changes only", "result": "↓"}, {"measurement": "change in term adjusted age milk (vs. term), Secretor", "setting": "[1]; significant changes only", "result": "↓"}, {"measurement": "Breast milk monosaccharide, Preterm, Lewis secretor (a−, b+)", "setting": "[1]; term adjusted age, n = 4, M±SD", "result": "5223 ± 2380", "unit": "mg/L"}, {"measurement": "Breast milk monosaccharide, Preterm, Lewis non-secretor types (a+/−, b−)", "setting": "[1]; term adjusted age, n = 8, M±SD", "result": "3865 ± 2121", "unit": "mg/L"}, {"measurement": "Breast milk monosaccharide, Preterm, combined Lewis types", "setting": "[1]; term adjusted age", "result": "4318 ± 2204", "unit": "mg/L"}, {"measurement": "trend of breast milk monosaccharide as gestation progresses towards term, 1-6 d", "setting": "[2]", "result": "↑"}, {"measurement": "trend of breast milk monosaccharide as gestation progresses towards term, 1 month", "setting": "[2]", "result": "↑"}, {"measurement": "trend of breast milk monosaccharide as gestation progresses towards term, 7-10 d", "setting": "[2]", "result": "↑"}, {"measurement": "Breast milk monosaccharide at term adjusted age, Preterm (30-37 wks)", "setting": "[2]", "result": "4318 ± 2204", "unit": "mg/L"}, {"measurement": "Breast milk monosaccharide, Term (38-41 wks)", "setting": "[2]", "result": "8192 ± 2024", "unit": "mg/L"}]}, {"smiles": "O=C[C@H](O)[C@@H](O)[C@H](O)[C@H](O)CO", "note": "[Glucose, D-glucose]", "values": [{"measurement": "Breast milk monosaccharide, Term, Lewis non-secretor types (a+/−, b−)", "setting": "[1]", "result": "23616 ± 2451", "unit": "mg/L"}, {"measurement": "Breast milk monosaccharide, Term, Lewis secretor (a−, b+)", "setting": "[1]", "result": "19562 ± 5601", "unit": "mg/L"}, {"measurement": "Breast milk monosaccharide, Preterm, Lewis secretor (a−, b+)", "setting": "[1]; d. 1-6, n = 7, M±SD", "result": "24173 ± 3907", "unit": "mg/L"}, {"measurement": "Breast milk monosaccharide, Term, combined Lewis secretor/non-secretor types", "setting": "[1]", "result": "21404 ± 4751", "unit": "mg/L"}, {"measurement": "Breast milk monosaccharide, Preterm, Lewis non-secretor types (a+/−, b−)", "setting": "[1]; d. 1-6, n = 13, M±SD", "result": "25006 ± 4352", "unit": "mg/L"}, {"measurement": "Breast milk monosaccharide, Preterm, combined Lewis secretor/non-secretor types", "setting": "[1]", "result": "24714 ± 4117", "unit": "mg/L"}, {"measurement": "change in preterm milk (vs. term), Birth, Lewis Combined", "setting": "[1]; significant changes only", "result": "↑"}, {"measurement": "change in term adjusted age milk (vs. term), Lewis Combined", "setting": "[1]; significant changes only", "result": "↑"}, {"measurement": "change in term adjusted age milk (vs. term), Non-secretor types", "setting": "[1]; significant changes only", "result": "↑"}, {"measurement": "Breast milk monosaccharide, Preterm, Lewis secretor (a−, b+)", "setting": "[1]; term adjusted age, n = 4, M±SD", "result": "27251 ± 6902", "unit": "mg/L"}, {"measurement": "Breast milk monosaccharide, Preterm, Lewis non-secretor types (a+/−, b−)", "setting": "[1]; term adjusted age, n = 8, M±SD", "result": "29452 ± 5283", "unit": "mg/L"}, {"measurement": "Breast milk monosaccharide, Preterm, combined Lewis types", "setting": "[1]; term adjusted age", "result": "28718 ± 5650", "unit": "mg/L"}, {"measurement": "trend of breast milk monosaccharide as gestation progresses towards term, 1-6 d", "setting": "[2]", "result": "↓"}, {"measurement": "trend of breast milk monosaccharide as gestation progresses towards term, 1 month", "setting": "[2]", "result": "="}, {"measurement": "trend of breast milk monosaccharide as gestation progresses towards term, 7-10 d", "setting": "[2]", "result": "↑"}, {"measurement": "Breast milk monosaccharide at term adjusted age, Preterm (30-37 wks)", "setting": "[2]", "result": "28718 ± 5650", "unit": "mg/L"}, {"measurement": "presence in infant formulas", "setting": "[2]; preterm, preterm post-discharge, term and soy formulas", "result": "found in all infant formulas tested"}, {"measurement": "Breast milk monosaccharide, Term (38-41 wks)", "setting": "[2]", "result": "21404 ± 4751", "unit": "mg/L"}]}, {"smiles": "O=C[C@@H](O)[C@@H](O)[C@H](O)[C@H](O)CO", "note": "[Mannose, mannose]", "values": [{"measurement": "Breast milk monosaccharide, Term, Lewis non-secretor types (a+/−, b−)", "setting": "[1]", "result": "78 ± 63", "unit": "mg/L"}, {"measurement": "Breast milk monosaccharide, Term, Lewis secretor (a−, b+)", "setting": "[1]", "result": "78 ± 138", "unit": "mg/L"}, {"measurement": "Breast milk monosaccharide, Preterm, Lewis secretor (a−, b+)", "setting": "[1]; d. 1-6, n = 7, M±SD", "result": "126 ± 88", "unit": "mg/L"}, {"measurement": "Breast milk monosaccharide, Term, combined Lewis secretor/non-secretor types", "setting": "[1]", "result": "78 ± 105", "unit": "mg/L"}, {"measurement": "Breast milk monosaccharide, Preterm, Lewis non-secretor types (a+/−, b−)", "setting": "[1]; d. 1-6, n = 13, M±SD", "result": "108 ± 102", "unit": "mg/L"}, {"measurement": "Breast milk monosaccharide, Preterm, combined Lewis secretor/non-secretor types", "setting": "[1]", "result": "115 ± 96", "unit": "mg/L"}, {"measurement": "Breast milk monosaccharide, Preterm, Lewis secretor (a−, b+)", "setting": "[1]; term adjusted age, n = 4, M±SD", "result": "92 ± 45", "unit": "mg/L"}, {"measurement": "Breast milk monosaccharide, Preterm, Lewis non-secretor types (a+/−, b−)", "setting": "[1]; term adjusted age, n = 8, M±SD", "result": "151 ± 171", "unit": "mg/L"}, {"measurement": "Breast milk monosaccharide, Preterm, combined Lewis types", "setting": "[1]; term adjusted age", "result": "131 ± 141", "unit": "mg/L"}, {"measurement": "trend of breast milk monosaccharide as gestation progresses towards term, 1-6 d", "setting": "[2]", "result": "↑"}, {"measurement": "trend of breast milk monosaccharide as gestation progresses towards term, 1 month", "setting": "[2]", "result": "↑"}, {"measurement": "trend of breast milk monosaccharide as gestation progresses towards term, 7-10 d", "setting": "[2]", "result": "↑"}, {"measurement": "Breast milk monosaccharide at term adjusted age, Preterm (30-37 wks)", "setting": "[2]", "result": "131 ± 141", "unit": "mg/L"}, {"measurement": "Breast milk monosaccharide, Term (38-41 wks)", "setting": "[2]", "result": "78 ± 105", "unit": "mg/L"}]}, {"smiles": "CC(=O)N[C@H]1[C@H]([C@H](O)[C@H](O)CO)OC(O)(C(=O)O)C[C@@H]1O", "note": "(stereo partly drawn) [Sialic Acid, N-acetylneuraminic acid]", "values": [{"measurement": "Breast milk monosaccharide, Term, Lewis non-secretor types (a+/−, b−)", "setting": "[1]", "result": "860 ± 207", "unit": "mg/L"}, {"measurement": "Breast milk monosaccharide, Term, Lewis secretor (a−, b+)", "setting": "[1]", "result": "658 ± 154", "unit": "mg/L"}, {"measurement": "Breast milk monosaccharide, Preterm, Lewis secretor (a−, b+)", "setting": "[1]; d. 1-6, n = 7, M±SD", "result": "1008 ± 311", "unit": "mg/L"}, {"measurement": "Breast milk monosaccharide, Term, combined Lewis secretor/non-secretor types", "setting": "[1]", "result": "749 ± 200", "unit": "mg/L"}, {"measurement": "Breast milk monosaccharide, Preterm, Lewis non-secretor types (a+/−, b−)", "setting": "[1]; d. 1-6, n = 13, M±SD", "result": "969 ± 247", "unit": "mg/L"}, {"measurement": "Breast milk monosaccharide, Preterm, combined Lewis secretor/non-secretor types", "setting": "[1]", "result": "983 ± 263", "unit": "mg/L"}, {"measurement": "change in preterm milk (vs. term), Birth, Lewis Combined", "setting": "[1]; significant changes only", "result": "↑"}, {"measurement": "change in preterm milk (vs. term), Birth, Secretor", "setting": "[1]; significant changes only", "result": "↑"}, {"measurement": "change in term adjusted age milk (vs. term), Lewis Combined", "setting": "[1]; significant changes only", "result": "↓"}, {"measurement": "change in term adjusted age milk (vs. term), Non-secretor types", "setting": "[1]; significant changes only", "result": "↓"}, {"measurement": "Breast milk monosaccharide, Preterm, Lewis secretor (a−, b+)", "setting": "[1]; term adjusted age, n = 4, M±SD", "result": "537 ± 128", "unit": "mg/L"}, {"measurement": "Breast milk monosaccharide, Preterm, Lewis non-secretor types (a+/−, b−)", "setting": "[1]; term adjusted age, n = 8, M±SD", "result": "503 ± 203", "unit": "mg/L"}, {"measurement": "Breast milk monosaccharide, Preterm, combined Lewis types", "setting": "[1]; term adjusted age", "result": "514 ± 176", "unit": "mg/L"}, {"measurement": "trend of breast milk monosaccharide as gestation progresses towards term, 1-6 d", "setting": "[2]", "result": "↓"}, {"measurement": "trend of breast milk monosaccharide as gestation progresses towards term, 7-10 d", "setting": "[2]", "result": "="}, {"measurement": "Breast milk monosaccharide at term adjusted age, Preterm (30-37 wks)", "setting": "[2]", "result": "514 ± 176", "unit": "mg/L"}, {"measurement": "Breast milk monosaccharide, Term (38-41 wks)", "setting": "[2]", "result": "749 ± 200", "unit": "mg/L"}, {"measurement": "Sialic acid content, Preterm Breast Milk", "setting": "[3]", "result": ".977^a mg/ml"}]}]}
